Assays:
[1] = test system: different-cell pairs of BEAS-2B, A549, H1299, H1975 without physical contact under a mutual headspace; assay: VOCs headspace analysis (ITEX GC-MS) of different-cell pair co-culture headspace groups (Format-3), bulk cell samples; assay type: cell-based, human; conditions: bulk 1 × 10^4 cell
[2] = test system: A549, H1299, H1975 human lung cancer lines and BEAS-2B normal cell line, each cultured alone; assay: VOCs headspace analysis (ITEX GC-MS) of mono-culture groups (Format-1), bulk cell samples 1×10^4 cells; assay type: cell-based; conditions: bulk 1 × 10^4 cell

SMILES	VOC level in headspace, area under curve (AUC) normalized by STD AUC ([1]; A + B (BEAS-2B + A549))	VOC level in headspace, area under curve (AUC) normalized by STD AUC ([1]; A + C (BEAS-2B + H1299))	VOC level in headspace, area under curve (AUC) normalized by STD AUC ([1]; A + D (BEAS-2B + H1975))	VOC level in headspace, area under curve (AUC) normalized by STD AUC ([1]; B + C (A549 + H1299))	VOC level in headspace, area under curve (AUC) normalized by STD AUC ([1]; B + D (A549 + H1975))	VOC level in headspace, area under curve (AUC) normalized by STD AUC ([1]; C + D (H1299 + H1975))	VOC level in headspace, area under curve (AUC) normalized by STD AUC ([2]; A (BEAS-2B) mono-culture)	VOC level in headspace, area under curve (AUC) normalized by STD AUC ([2]; B (A549) mono-culture)	VOC level in headspace, area under curve (AUC) normalized by STD AUC ([2]; C (H1299) mono-culture)	VOC level in headspace, area under curve (AUC) normalized by STD AUC ([2]; D (H1975) mono-culture)
CC(O)(C(=O)O)C(=O)O [VOC77]	0	0	6.282	0	5.793	2.664	0	0	0	7.098
CCO [VOC78]	5.416	5.832	0	2.398	1.36	0.3177	0	5.613	6.3364	0
COC(=O)[C@H](C)N [VOC79]	0	0	6.257	0	3.831	0	0	0	0	8.41
C/C=C/C(C)C [VOC80]	0	3.224	0	0.5519	0	0	0	0	3.9491	0
CC(C)(C)c1cccc(C(C)(C)C)c1O [VOC81]	5.981	3.906	0	3.661	0	1.167	0	6.826	3.9958	0
CC(C)CCOC(=O)C1CCC1 [VOC82]	2.077	4.821	0	9.846	0	2.457	0	4.821	4.9531	0
COc1ccc(C=CC(=O)O)cc1OC [VOC83]	0	0	3.877	0	2.754	0.2906	0	0	0	5.179
CNCCS(=O)(=O)O [VOC84]	0	2.318	0	4.427	0	3.166	0	0	5.2536	0

— patent publication US20260079169A1, “VOLATILE ORGANIC COMPOUNDS AS MARKERS FOR CELLULAR COMMUNICATION” (Technion Research and Development Foundation Limited, priority 2020, published 2026)
